Measurements reported in patent publication US12686711B2, “DARIC interleukin receptors” (Regeneron Pharmaceuticals, Inc., priority 2017, dated 2026).
For at least one compound, name, drawing or mass did not settle the structure.

Tested on: donor PBMCs
Experiment: IFNγ production in IL-12 pre-treated transduced and untransduced donor PBMCs
Format: cell-based
Details: cells transduced with IL-18R-DARIC-GFP; pre-treated 50 ng/mL human recombinant IL-12 for 24 hours, then medium with 1 nM rapamycin; FIG. 2
Excerpt: IL-18 receptor (IL-18R) DARIC binding and signaling components were designed, constructed, and verified. An IL-18R DARIC lentiviral vector was constructed comprising an MNDU3 promoter operably linked to a polynucleotide encoding: a DARIC signaling component (CD8α-signal peptide, an FRB variant (T82L), and an IL-18R1 transmembrane and signaling domain); a P2A sequence; and a DARIC binding component (an Igκ-signal peptide, an FKBP12 domain, and a IL-18RAP transmembrane and signaling domain). An IL-18R DARIC-GFP lentiviral vector was constructed by appending another polynucleotide encoding a P2A sequence and GFP to the to the polynucleotide encoding the IL-18R1 signaling domain in aforementioned vector. See, e.g., SEQ ID NOs: 1-4.
Donor PBMCs were transduced with LVV encoding IL-18R-DARIC-GFP. Transduced PBMCs and untransduced control PBMCs were pre-treated with 50 ng/mL human recombinant IL-12 for 24 hours. The treated cells were washed and cultured in medium only, medium with 100 ng/mL human recombinant IL-18 or medium with 1 nM rapamycin. […] FIG. 2.

CO[C@H]1C[C@@H]2CC[C@@H](C)[C@@](O)(O2)C(=O)C(=O)N2CCCC[C@H]2C(=O)O[C@H]([C@H](C)C[C@@H]2CC[C@@H](O)[C@H](OC)C2)CC(=O)[C@H](C)/C=C(\C)[C@@H](O)[C@@H](OC)C(=O)[C@H](C)C[C@H](C)/C=C/C=C/C=C/1C [rapamycin]
IFNγ production when treated with rapamycin: only cells transduced with IL-18R-DARIC-GFP showed increased IFNγ production
